Experimental data published in paper doi:10.1101/815886.
Results are given in words; binding and its absence hold for the method and conditions named. Binding seen in cells or lysates may run through a third protein. Some binding calls cover weakened binding; strength is not graded here. Where a sequence is shown, tags or fusion partners need not be part of it.

Columns and labels:
Assay in all cases: co-IP
[1] = target: T1, HA-TEN1 (human) (UniProt Q86WV5)
T1 sequence: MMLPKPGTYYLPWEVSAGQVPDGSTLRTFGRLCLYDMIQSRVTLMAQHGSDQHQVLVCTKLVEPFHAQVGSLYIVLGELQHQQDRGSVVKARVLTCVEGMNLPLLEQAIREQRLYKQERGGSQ

[2] = target: T2, FLAG-CTC1 V967A/S979A/H980A (human) (UniProt Q2NKJ3)
T2 sequence: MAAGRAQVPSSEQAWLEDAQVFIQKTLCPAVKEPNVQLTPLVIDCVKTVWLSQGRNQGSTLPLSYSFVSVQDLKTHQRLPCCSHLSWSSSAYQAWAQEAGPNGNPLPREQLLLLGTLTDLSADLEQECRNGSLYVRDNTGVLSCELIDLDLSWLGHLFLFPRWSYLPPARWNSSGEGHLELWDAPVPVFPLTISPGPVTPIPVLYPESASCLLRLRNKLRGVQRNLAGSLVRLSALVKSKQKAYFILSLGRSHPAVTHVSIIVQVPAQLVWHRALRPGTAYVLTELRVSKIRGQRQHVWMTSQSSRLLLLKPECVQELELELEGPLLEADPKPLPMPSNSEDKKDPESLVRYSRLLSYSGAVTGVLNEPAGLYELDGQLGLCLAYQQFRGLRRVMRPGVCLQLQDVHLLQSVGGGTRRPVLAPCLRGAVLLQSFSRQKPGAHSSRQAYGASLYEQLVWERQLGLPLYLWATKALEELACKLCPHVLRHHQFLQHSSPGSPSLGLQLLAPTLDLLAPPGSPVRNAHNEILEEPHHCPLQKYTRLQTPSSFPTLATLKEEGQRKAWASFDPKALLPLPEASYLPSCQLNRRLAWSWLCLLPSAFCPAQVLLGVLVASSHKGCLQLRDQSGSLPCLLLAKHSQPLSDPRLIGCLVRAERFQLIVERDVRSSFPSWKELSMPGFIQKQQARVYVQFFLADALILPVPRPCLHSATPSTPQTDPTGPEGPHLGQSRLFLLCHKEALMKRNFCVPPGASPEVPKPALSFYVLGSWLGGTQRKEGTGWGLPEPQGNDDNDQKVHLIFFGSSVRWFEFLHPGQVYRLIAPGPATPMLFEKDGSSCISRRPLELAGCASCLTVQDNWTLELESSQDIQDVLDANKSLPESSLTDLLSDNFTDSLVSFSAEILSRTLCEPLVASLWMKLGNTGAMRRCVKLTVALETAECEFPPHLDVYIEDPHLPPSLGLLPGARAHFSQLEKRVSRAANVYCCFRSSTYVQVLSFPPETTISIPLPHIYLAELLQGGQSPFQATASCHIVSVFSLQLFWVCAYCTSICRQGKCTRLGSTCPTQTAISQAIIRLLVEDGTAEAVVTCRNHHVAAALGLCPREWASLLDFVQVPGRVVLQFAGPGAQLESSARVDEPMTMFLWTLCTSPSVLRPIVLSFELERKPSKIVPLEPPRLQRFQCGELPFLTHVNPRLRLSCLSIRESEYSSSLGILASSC

[3] = target: T3, FLAG-CTC1 R1193E/R1195E (human) (UniProt Q2NKJ3)
T3 sequence: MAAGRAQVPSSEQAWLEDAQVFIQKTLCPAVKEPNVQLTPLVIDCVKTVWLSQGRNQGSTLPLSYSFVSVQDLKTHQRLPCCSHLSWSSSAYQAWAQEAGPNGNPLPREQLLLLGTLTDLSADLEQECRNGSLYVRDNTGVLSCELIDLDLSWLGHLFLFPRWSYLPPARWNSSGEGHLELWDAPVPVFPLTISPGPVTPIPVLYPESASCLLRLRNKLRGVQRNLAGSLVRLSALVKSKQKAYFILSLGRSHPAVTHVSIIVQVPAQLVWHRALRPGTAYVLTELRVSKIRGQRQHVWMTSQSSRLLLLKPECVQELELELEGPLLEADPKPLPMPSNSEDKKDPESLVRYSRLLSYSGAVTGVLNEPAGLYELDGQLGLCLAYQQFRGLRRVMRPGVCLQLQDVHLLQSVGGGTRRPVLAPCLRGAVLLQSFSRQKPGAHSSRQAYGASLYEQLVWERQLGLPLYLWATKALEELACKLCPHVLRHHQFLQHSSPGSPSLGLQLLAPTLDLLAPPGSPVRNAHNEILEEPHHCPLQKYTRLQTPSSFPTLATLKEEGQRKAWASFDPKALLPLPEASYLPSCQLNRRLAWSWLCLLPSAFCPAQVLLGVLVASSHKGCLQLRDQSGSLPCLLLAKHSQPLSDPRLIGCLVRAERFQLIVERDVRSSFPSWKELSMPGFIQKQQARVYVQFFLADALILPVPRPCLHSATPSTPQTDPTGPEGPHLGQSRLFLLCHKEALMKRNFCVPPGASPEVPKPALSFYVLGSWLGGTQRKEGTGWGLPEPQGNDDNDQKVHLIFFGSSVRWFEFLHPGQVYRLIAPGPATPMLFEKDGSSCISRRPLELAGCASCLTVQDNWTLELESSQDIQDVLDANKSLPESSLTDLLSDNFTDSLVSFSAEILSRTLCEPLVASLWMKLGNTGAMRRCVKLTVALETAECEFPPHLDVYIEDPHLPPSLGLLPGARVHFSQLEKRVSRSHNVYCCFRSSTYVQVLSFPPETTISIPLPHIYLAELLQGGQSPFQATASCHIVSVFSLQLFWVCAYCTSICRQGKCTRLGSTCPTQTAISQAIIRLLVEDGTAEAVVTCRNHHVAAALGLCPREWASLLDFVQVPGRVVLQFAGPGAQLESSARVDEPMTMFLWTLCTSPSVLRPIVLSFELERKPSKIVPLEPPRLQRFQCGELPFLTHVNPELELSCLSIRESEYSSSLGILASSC

[4] = target: T4, FLAG-CTC1 K1164E/K1167E (human) (UniProt Q2NKJ3)
T4 sequence: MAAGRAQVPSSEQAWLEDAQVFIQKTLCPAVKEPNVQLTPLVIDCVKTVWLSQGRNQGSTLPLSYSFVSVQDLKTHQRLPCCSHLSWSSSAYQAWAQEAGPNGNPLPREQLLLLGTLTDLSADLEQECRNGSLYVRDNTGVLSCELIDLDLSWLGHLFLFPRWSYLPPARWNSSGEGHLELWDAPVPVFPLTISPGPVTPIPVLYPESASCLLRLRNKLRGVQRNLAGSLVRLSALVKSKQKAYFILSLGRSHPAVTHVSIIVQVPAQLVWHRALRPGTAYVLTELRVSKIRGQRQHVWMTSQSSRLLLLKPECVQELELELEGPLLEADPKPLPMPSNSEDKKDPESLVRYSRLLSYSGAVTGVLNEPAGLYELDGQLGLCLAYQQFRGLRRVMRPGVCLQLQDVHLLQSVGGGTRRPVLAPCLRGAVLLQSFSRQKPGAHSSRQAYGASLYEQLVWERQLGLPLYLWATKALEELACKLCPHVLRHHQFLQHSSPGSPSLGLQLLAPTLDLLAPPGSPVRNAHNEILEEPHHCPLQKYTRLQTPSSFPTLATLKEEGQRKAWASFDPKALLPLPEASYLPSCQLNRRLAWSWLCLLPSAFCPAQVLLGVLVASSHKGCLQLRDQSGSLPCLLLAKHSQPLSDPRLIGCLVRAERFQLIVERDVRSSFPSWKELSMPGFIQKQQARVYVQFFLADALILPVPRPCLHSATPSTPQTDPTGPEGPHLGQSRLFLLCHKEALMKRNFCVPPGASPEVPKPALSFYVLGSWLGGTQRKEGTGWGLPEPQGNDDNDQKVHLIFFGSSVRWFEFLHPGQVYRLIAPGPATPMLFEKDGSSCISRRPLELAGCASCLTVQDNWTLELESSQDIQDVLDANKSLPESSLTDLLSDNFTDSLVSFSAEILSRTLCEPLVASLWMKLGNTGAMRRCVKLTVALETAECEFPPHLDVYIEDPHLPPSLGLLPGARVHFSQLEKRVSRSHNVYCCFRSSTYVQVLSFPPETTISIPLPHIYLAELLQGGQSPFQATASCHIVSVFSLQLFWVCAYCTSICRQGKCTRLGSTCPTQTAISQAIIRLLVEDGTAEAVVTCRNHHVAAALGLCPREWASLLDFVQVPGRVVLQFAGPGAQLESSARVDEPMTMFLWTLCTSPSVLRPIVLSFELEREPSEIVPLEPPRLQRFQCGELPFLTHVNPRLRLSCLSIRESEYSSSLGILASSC

binding [1]: binds
binding [2]: binds
binding [3]: binds
binding [4]: binds
B1: Myc-STN1 (protein, UniProt Q9H668 1-368)
chain: MQPGSSRCEEETPSLLWGLDPVFLAFAKLYIRDILDMKESRQVPGVFLYNGHPIKQVDVLGTVIGVRERDAFYSYGVDDSTGVINCICWKKLNTESVSAAPSAARELSLTSQLKKLQETIEQKTKIEIGDTIRVRGSIRTYREEREIHATTYYKVDDPVWNIQIARMLELPTIYRKVYDQPFHSSALEKEEALSNPGALDLPSLTSLLSEKAKEFLMENRVQSFYQQELEMVESLLSLANQPVIHSASSDQVNFKKDTTSKAIHSIFKNAIQLLQEKGLVFQKDDGFDNLYYVTREDKDLHRKIHRIIQQDCQKPNHMEKGCHFLHILACARLSIRPGLSEAVLQQVLELLEDQSDIVSTMEHYYTAF
